Patent US9345738B2, “Methods for the prevention or treatment of no-reflow following ischemia/reperfusion injury” (Stealth BioTherapeutics Corp., priority 2010, dated 2016)

System: rabbit heart, ischemic and non-ischemic region
Experiment: Regional myocardial blood flow (RMBF), radioactive microsphere technique, rabbit model of AMI
Format: in vivo, New Zealand White rabbit
Details: at 25 min of CAO
[1] = Group 1 (infusion from 10′ after CAO), 3 hearts with ischemic flow >0.20 excluded
[2] = Group 2 (infusion from 20′ after CAO), 3 hearts with ischemic flow >0.20 excluded
[3] = Group 3 (infusion from 29′ after CAO, i.e. after the measurement), 3 hearts excluded

D-Arg-2′,6′-Dmt-Lys-Phe-NH2
RMBF, ischemic region [1]: 0.02 ± 0.01 mL/min/g
RMBF, non-ischemic region [1]: 2.13 ± 0.12 mL/min/g
RMBF, ischemic region [2]: 0.03 ± 0.01 mL/min/g
RMBF, non-ischemic region [2]: 2.63 ± 0.29 mL/min/g
RMBF, ischemic region [3]: 0.05 ± 0.03 mL/min/g
RMBF, non-ischemic region [3]: 2.43 ± 0.19 mL/min/g
